Where two headings read alike, the source gives them in different places.
Question: For NCCC[C@H](N)C(=O)O.O=C(O)Cc1ccccc1 [L-ornithine phenyl acetate], which “Results (crystalline form of precipitate)” value (shortened to “Results”) (Test 436, Anti-Solvent (IPA) Addition (4° C.), 1,4-dioxane: 10% H20) is on record?
Answer: No Solid

Question: What about the “Results” value (Test 437, Anti-Solvent (IPA) Addition (−21° C.), 1,4-dioxane: 10% H20) of the same compound?
Answer: No Solid

Question: What about the “Results” value (Test 438, Anti-Solvent (Ethanol) Addition Ambient Temperature, 1,4-dioxane: 10% H20) of the same compound?
Answer: No Solid

Question: And the “Results” value (Test 439, Anti-Solvent (Ethanol) Addition (4° C.), 1,4-dioxane: 10% H20)?
Answer: No Solid

Question: And the “Results” value (Test 440, Anti-Solvent (Ethanol) Addition (−21° C.), 1,4-dioxane: 10% H20)?
Answer: No Solid

Question: And the “Results” value (Test 445, Anti-Solvent (IPA) Addition Elevated Temperature, MeOH: 5% H20)?
Answer: Form II

Question: And the “Results” value (Test 446, Anti-Solvent (IPA) Addition Ambient Temperature, MeOH: 5% H20)?
Answer: Form II

Question: What about the “Results” value (Test 447, Anti-Solvent (IPA) Addition (4° C.), MeOH: 5% H20) of the same compound?
Answer: Form II

Question: What about the “Results” value (Test 448, Anti-Solvent (IPA) Addition (−21° C.), MeOH: 5% H20) of the same compound?
Answer: Form II

Question: And the “Results” value (Test 449, Anti-Solvent (Ethanol) Addition Ambient Temperature, MeOH: 5% H20)?
Answer: No Solid

Question: What about the “Results” value (Test 450, Anti-Solvent (Ethanol) Addition (4° C.), MeOH: 5% H20) of the same compound?
Answer: Form II

Question: What about the “Results” value (Test 451, Anti-Solvent (Ethanol) Addition (−21° C.), MeOH: 5% H20) of the same compound?
Answer: Form II

Question: And the “Results” value (Test 456, Anti-Solvent (IPA) Addition Elevated Temperature, MeOH: 20% H20)?
Answer: Form II

Question: And the “Results” value (Test 457, Anti-Solvent (IPA) Addition Ambient Temperature, MeOH: 20% H20)?
Answer: Form II

Question: What about the “Results” value (Test 458, Anti-Solvent (IPA) Addition (4° C.), MeOH: 20% H20) of the same compound?
Answer: Form II

Question: What about the “Results” value (Test 459, Anti-Solvent (IPA) Addition (−21° C.), MeOH: 20% H20) of the same compound?
Answer: Form II

Question: What about the “Results” value (Test 460, Anti-Solvent (Ethanol) Addition Ambient Temperature, MeOH: 20% H20) of the same compound?
Answer: Form II

Question: What about the “Results” value (Test 461, Anti-Solvent (Ethanol) Addition (4° C.), MeOH: 20% H20) of the same compound?
Answer: Form II

Question: What about the “Results” value (Test 462, Anti-Solvent (Ethanol) Addition (−21° C.), MeOH: 20% H20) of the same compound?
Answer: Form I/II

Question: And the “Results” value (Test 467, Anti-Solvent (IPA) Addition Elevated Temperature, MeOH: 50% H20)?
Answer: Form II

Question: And the “Results” value (Test 468, Anti-Solvent (IPA) Addition Ambient Temperature, MeOH: 50% H20)?
Answer: No Solid

Question: And the “Results” value (Test 469, Anti-Solvent (IPA) Addition (4° C.), MeOH: 50% H20)?
Answer: Form II

Question: What about the “Results” value (Test 470, Anti-Solvent (IPA) Addition (−21° C.), MeOH: 50% H20) of the same compound?
Answer: No Solid

Question: What about the “Results” value (Test 471, Anti-Solvent (Ethanol) Addition Ambient Temperature, MeOH: 50% H20) of the same compound?
Answer: Form II

Question: And the “Results” value (Test 472, Anti-Solvent (Ethanol) Addition (4° C.), MeOH: 50% H20)?
Answer: Form I

Question: What about the “Results” value (Test 473, Anti-Solvent (Ethanol) Addition (−21° C.), MeOH: 50% H20) of the same compound?
Answer: Form I/II

Question: And the “Results” value (Test 478, Anti-Solvent (IPA) Addition Elevated Temperature, THF: 1% H20)?
Answer: No Solid

Question: What about the “Results” value (Test 479, Anti-Solvent (IPA) Addition Ambient Temperature, THF: 1% H20) of the same compound?
Answer: No Solid

Question: And the “Results” value (Test 480, Anti-Solvent (IPA) Addition (4° C.), THF: 1% H20)?
Answer: No Solid

Question: What about the “Results” value (Test 481, Anti-Solvent (IPA) Addition (−21° C.), THF: 1% H20) of the same compound?
Answer: No Solid

Question: And the “Results” value (Test 482, Anti-Solvent (Ethanol) Addition Ambient Temperature, THF: 1% H20)?
Answer: No Solid

Question: And the “Results” value (Test 483, Anti-Solvent (Ethanol) Addition (4° C.), THF: 1% H20)?
Answer: No Solid

Question: And the “Results” value (Test 484, Anti-Solvent (Ethanol) Addition (−21° C.), THF: 1% H20)?
Answer: No Solid

Question: And the “Results” value (Test 489, Anti-Solvent (IPA) Addition Elevated Temperature, THF: 3% H20)?
Answer: No Solid

Question: What about the “Results” value (Test 490, Anti-Solvent (IPA) Addition Ambient Temperature, THF: 3% H20) of the same compound?
Answer: Form II

Question: And the “Results” value (Test 491, Anti-Solvent (IPA) Addition (4° C.), THF: 3% H20)?
Answer: No Solid

Question: What about the “Results” value (Test 492, Anti-Solvent (IPA) Addition (−21° C.), THF: 3% H20) of the same compound?
Answer: No Solid

Question: What about the “Results” value (Test 493, Anti-Solvent (Ethanol) Addition Ambient Temperature, THF: 3% H20) of the same compound?
Answer: No Solid

Question: And the “Results” value (Test 494, Anti-Solvent (Ethanol) Addition (4° C.), THF: 3% H20)?
Answer: No Solid

Question: And the “Results” value (Test 495, Anti-Solvent (Ethanol) Addition (−21° C.), THF: 3% H20)?
Answer: No Solid

Question: And the “Results” value (Test 500, Anti-Solvent (IPA) Addition Elevated Temperature, THF: 5% H20)?
Answer: No Solid

Question: And the “Results” value (Test 501, Anti-Solvent (IPA) Addition Ambient Temperature, THF: 5% H20)?
Answer: No Solid

Question: What about the “Results” value (Test 502, Anti-Solvent (IPA) Addition (4° C.), THF: 5% H20) of the same compound?
Answer: Form II

Question: And the “Results” value (Test 503, Anti-Solvent (IPA) Addition (−21° C.), THF: 5% H20)?
Answer: No Solid

Question: And the “Results” value (Test 504, Anti-Solvent (Ethanol) Addition Ambient Temperature, THF: 5% H20)?
Answer: No Solid

Question: And the “Results” value (Test 505, Anti-Solvent (Ethanol) Addition (4° C.), THF: 5% H20)?
Answer: No Solid

Question: And the “Results” value (Test 506, Anti-Solvent (Ethanol) Addition (−21° C.), THF: 5% H20)?
Answer: No Solid

Question: What about the “Results” value (Test 511, Anti-Solvent (IPA) Addition Elevated Temperature, butan-1-ol: 1% H20) of the same compound?
Answer: No Solid

Question: What about the “Results” value (Test 512, Anti-Solvent (IPA) Addition Ambient Temperature, butan-1-ol: 1% H20) of the same compound?
Answer: No Solid

Question: What about the “Results” value (Test 513, Anti-Solvent (IPA) Addition (4° C.), butan-1-ol: 1% H20) of the same compound?
Answer: No Solid

Question: And the “Results” value (Test 514, Anti-Solvent (IPA) Addition (−21° C.), butan-1-ol: 1% H20)?
Answer: No Solid

Question: And the “Results” value (Test 515, Anti-Solvent (Ethanol) Addition Ambient Temperature, butan-1-ol: 1% H20)?
Answer: No Solid

Question: And the “Results” value (Test 516, Anti-Solvent (Ethanol) Addition (4° C.), butan-1-ol: 1% H20)?
Answer: No Solid

Question: And the “Results” value (Test 517, Anti-Solvent (Ethanol) Addition (−21° C.), butan-1-ol: 1% H20)?
Answer: No Solid

Question: What about the “Results” value (Test 522, Anti-Solvent (IPA) Addition Elevated Temperature, butan-1-ol: 3% H20) of the same compound?
Answer: No Solid

Question: And the “Results” value (Test 523, Anti-Solvent (IPA) Addition Ambient Temperature, butan-1-ol: 3% H20)?
Answer: No Solid

Question: And the “Results” value (Test 524, Anti-Solvent (IPA) Addition (4° C.), butan-1-ol: 3% H20)?
Answer: No Solid

Question: And the “Results” value (Test 525, Anti-Solvent (IPA) Addition (−21° C.), butan-1-ol: 3% H20)?
Answer: No Solid

Question: What about the “Results” value (Test 526, Anti-Solvent (Ethanol) Addition Ambient Temperature, butan-1-ol: 3% H20) of the same compound?
Answer: No Solid

Question: What about the “Results” value (Test 527, Anti-Solvent (Ethanol) Addition (4° C.), butan-1-ol: 3% H20) of the same compound?
Answer: No Solid

Question: And the “Results” value (Test 528, Anti-Solvent (Ethanol) Addition (−21° C.), butan-1-ol: 3% H20)?
Answer: No Solid

Question: What about the “Results” value (Test 533, Anti-Solvent (IPA) Addition Elevated Temperature, butan-1-ol: 5% H20) of the same compound?
Answer: No Solid

Question: What about the “Results” value (Test 534, Anti-Solvent (IPA) Addition Ambient Temperature, butan-1-ol: 5% H20) of the same compound?
Answer: Form II

Question: And the “Results” value (Test 535, Anti-Solvent (IPA) Addition (4° C.), butan-1-ol: 5% H20)?
Answer: No Solid

Question: What about the “Results” value (Test 536, Anti-Solvent (IPA) Addition (−21° C.), butan-1-ol: 5% H20) of the same compound?
Answer: No Solid

Question: What about the “Results” value (Test 537, Anti-Solvent (Ethanol) Addition Ambient Temperature, butan-1-ol: 5% H20) of the same compound?
Answer: No Solid

Question: What about the “Results” value (Test 538, Anti-Solvent (Ethanol) Addition (4° C.), butan-1-ol: 5% H20) of the same compound?
Answer: No Solid

Question: And the “Results” value (Test 539, Anti-Solvent (Ethanol) Addition (−21° C.), butan-1-ol: 5% H20)?
Answer: No Solid

Question: And the “Results” value (Test 542, Anti-Solvent Addition, 1,4-dioxane)?
Answer: No Solid

Question: What about the “Results” value (Test 545, Anti-Solvent (Hexane) Addition (4° C.), 1-butanol) of the same compound?
Answer: Form III

Question: And the “Results” value (Test 548, Anti-Solvent (Hexane) Addition (4° C.), ethanol)?
Answer: Form I

Question: And the “Results” value (Test 551, Anti-Solvent (Hexane) Addition (4° C.), acetone)?
Answer: Form III

Question: And the “Results” value (Test 554, Anti-Solvent (Hexane) Addition (4° C.), benzonitrile)?
Answer: Form II

Question: What about the “Results” value (Test 557, Anti-Solvent (Hexane) Addition (4° C.), cyclohexane) of the same compound?
Answer: No Solid

Question: What about the “Results” value (Test 560, Anti-Solvent (Hexane) Addition (4° C.), DCM) of the same compound?
Answer: Form III

Question: And the “Results” value (Test 563, Anti-Solvent (Hexane) Addition (4° C.), DMSO)?
Answer: No Solid/No

Question: What about the “Results” value (Test 566, Anti-Solvent (Hexane) Addition (4° C.), EtOAc) of the same compound?
Answer: Form III

Question: What about the “Results” value (Test 569, Anti-Solvent (Hexane) Addition (4° C.), Heptane) of the same compound?
Answer: No Solid/No

Question: And the “Results” value (Test 572, Anti-Solvent (Hexane) Addition (4° C.), IPA)?
Answer: No Solid

Question: And the “Results” value (Test 575, Anti-Solvent (Hexane) Addition (4° C.), IPA: Water (1%))?
Answer: No Solid/No

Question: And the “Results” value (Test 578, Anti-Solvent (Hexane) Addition (4° C.), MeCN)?
Answer: Form I/III

Question: What about the “Results” value (Test 581, Anti-Solvent (Hexane) Addition (4° C.), MeCN: Water (1%)) of the same compound?
Answer: No Solid

Question: And the “Results” value (Test 584, Anti-Solvent (Hexane) Addition (4° C.), MEK)?
Answer: Form III

Question: And the “Results” value (Test 587, Anti-Solvent (Hexane) Addition (4° C.), MeOAc)?
Answer: Form III

Question: What about the “Results” value (Test 590, Anti-Solvent (Hexane) Addition (4° C.), MeOH) of the same compound?
Answer: Form III

Question: And the “Results” value (Test 593, Anti-Solvent (Hexane) Addition (4° C.), MIBK)?
Answer: No Solid

Question: What about the “Results” value (Test 596, Anti-Solvent (Hexane) Addition (4° C.), Nitromethane) of the same compound?
Answer: Form I

Question: And the “Results” value (Test 599, Anti-Solvent (Hexane) Addition (4° C.), TBME)?
Answer: Form I

Question: And the “Results” value (Test 602, Anti-Solvent (Hexane) Addition (4° C.), THF)?
Answer: Form I/III

Question: And the “Results” value (Test 605, Anti-Solvent (Hexane) Addition (4° C.), THF: water (1%))?
Answer: No Solid

Question: And the “Results” value (Test 608, Anti-Solvent (Hexane) Addition (4° C.), toluene)?
Answer: Form III

Question: And the “Results” value (Test 611, Anti-Solvent (Hexane) Addition (4° C.), water)?
Answer: Form III

From patent US12516015B2 (AMALIVE LIMITED, priority 2009, dated 2026)
